Data taken from ChEMBL document CHEMBL5532635, “The role of natural anti-parasitic guided development of synthetic drugs for leishmaniasis” (Eur J Med Chem, 2023).
Values after ≈ are worked out from the molar mass of the structure shown.

Experiments:
Leishmania major [1] = assay: Antileishmanial activity against Leishmania major amastigotes assessed as reduction in parasite growth incubated for 72 hrs by MTT assay; assay type: functional, organism-based
Leishmania major [2] = assay: Antileishmanial activity against Leishmania major promastigotes assessed as reduction in parasite growth incubated for 72 hrs by MTT assay; assay type: functional, organism-based

COc1c(O)cc2c(c1OC)-c1ccc(OC)c(=O)cc1[C@@H](NC(C)=O)CC2 [3-DESMETHYLCOLCHICIN]
IC50 (Leishmania major [1]): 11.9 µg/mL (≈ 30.9 µM) | IC50 (Leishmania major [2]): 0.8 µg/mL (≈ 2.08 µM)
